Out of some 320,000 compounds screened, about 22,000 (6.9%) were called active. The shares of active, inactive and inconclusive entries below differ from those in the screen. Calls come from the whole dose curve; as a rule, active = well fitted inhibition curve with a large enough effect; inconclusive = small, poorly fitted or top-dose-only effect, or another doubt; inactive = no such curve, though single readings can be large or run the other way. A potency beside an inconclusive call is a rough fit, not a confirmed value.
Experiment: Primary qHTS for delayed death inhibitors of the malarial parasite plastid, 96 hour incubation
Conditions: P. falciparum luciferase reporter growth; series mostly up to 28.7 µM
Summary of the method: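 Infected RBCs, 2% Hct / 0.05% parasitemia final; luciferase-reporter P. falciparum; cpd 96 h, 37 C, 5% CO2; luciferase detection reagent; luminescence.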
Potency is the fitted concentration of half-maximal effect.

Structure (SMILES)	Potency
CCCn1c2ccc(F)cc2c2nnc(SCCN3CCOCC3)nc21	inconclusive: 13.1 µM [inhibitor, single point]
CN(C)CCN(C(=O)c1ccc(S(=O)(=O)N(C)c2ccccc2)cc1)c1nc2ccc(Cl)cc2s1	inconclusive: 14.7 µM [inhibitor, single point]
CCOc1ccccc1C1C2CCCCC2(O)CCN1C(=O)c1cccs1 (stereo not given)	inconclusive: 0.329 µM [inhibitor, full curve, poor fit]
CC1=C(C(=O)OC(C)(C)C)C(c2cccc3ccccc23)NC(=O)N1 (stereo not given)	inconclusive: 10.4 µM [inhibitor, single point]
CCOC(=O)C1=C(N)Oc2c(c(=O)[nH]c3ccccc23)C1c1ccccc1 (stereo not given)	inconclusive: 10.4 µM [inhibitor, partial curve, poor fit]
C#CCOCCOCCOCCNc1nc(N2CCN(C(=O)CCCCCCCCCCNC(=O)[C@@H](CCSC)n3cc(CCO)nn3)CC2)nc(N2CCN(C(=O)CCCCCCCCCCNC(=O)[C@H](CCSC)n3cc(CCO)nn3)CC2)n1	active: 0.294 µM
O=C(COc1ccccc1)NCC1COc2ccccc2O1 (stereo not given)	inconclusive: 6.57 µM [inhibitor, partial curve]
O=C(Cn1c(C(=O)OCCO)cc2ccccc21)c1ccccc1	inconclusive: 11.7 µM [inhibitor, partial curve, poor fit]
COc1cc(CNc2ccc3[nH]c(=O)[nH]c3c2)cc(Br)c1OCc1ccc(F)cc1	inactive
CCN(C(=O)c1cc(S(=O)(=O)N2CCOCC2)cn1C)c1cccc(C)c1	inconclusive: 13.1 µM [inhibitor, single point]
C=CCn1c(SCCOc2ccccc2)nnc1C(C)NC(=O)c1ccccc1 (stereo not given)	inconclusive: 9.28 µM [inhibitor, single point]
CCN(C(=O)CSc1nc(-c2cccs2)nc2ccccc12)C1CCS(=O)(=O)C1 (stereo not given)	inconclusive: 3.7 µM [inhibitor, partial curve, poor fit]
Cc1ccc(S(=O)(=O)NCc2ccc(C(=O)N3CCN(Cc4ccccc4)CC3)cc2)cc1	inconclusive: 8.28 µM [inhibitor, partial curve]
O=C(O)c1cc(C(=O)O)c(-c2ccccc2)c(C(=O)O)c1	inconclusive: 18.5 µM [inhibitor, single point]
CN(C)S(=O)(=O)c1cccc(COC(=O)C2=COCCO2)c1	inconclusive: 18.5 µM [inhibitor, single point]
O=S(=O)(c1ccc(-c2ccccn2)s1)N1CCC2(CC1)OCCO2	inactive
Cc1nn(CC(=O)NCCc2ccccc2)c(=O)c2cc3occc3n12	inconclusive: 18.5 µM [inhibitor, single point]
O=C(CCOc1ccccc1)Nc1ccnn1C1CCN(Cc2ccc(CO)o2)CC1	inconclusive: 13.1 µM [inhibitor, partial curve, poor fit]
COc1ccc(-c2ccc([C@H]3[C@H]4C=CC[C@@H](C)[C@@H]4C(=O)N3Cc3ccccc3)c(F)c2)cc1	inconclusive: 10.4 µM [inhibitor, single point]
COc1cc(Nc2cc(C)nc3ncnn23)cc(OC)c1OC	inconclusive: 18.5 µM [inhibitor, single point]
COc1ccc(CNC(=O)N2CCN(c3ccccc3OC)CC2)cc1	inactive
Cn1cc(C(F)(F)F)nc1-c1ccc(OCC(O)CNCCOc2ccc(O)c(C(N)=O)c2)cc1 (stereo not given)	inconclusive: 10.4 µM [inhibitor, single point]

Structure (SMILES)	Potency
COc1ccccc1N1CC(O)=C(c2nc3ccccc3c(=O)[nH]2)C1=N	inactive
COCc1c(C(=O)N/N=C\c2cccs2)nnn1-c1nonc1N	inconclusive: 18.5 µM [inhibitor, partial curve, poor fit]
O=c1[nH]c(C2CCN(S(=O)(=O)c3ccc([N+](=O)[O-])cc3)CC2)nc2c1nnn2Cc1ccccc1	active: 0.147 µM
CC12CCC(C(=O)Nc3cc(Cl)ccc3Cl)(C(Br)C1=O)C2(C)C (stereo not given)	inconclusive: 18.5 µM [inhibitor, single point]
COc1ccccc1N(CC(O)CN1CCCC1)S(=O)(=O)c1ccccc1 (stereo not given)	inconclusive: 11.7 µM [inhibitor, single point]
CCOC(=O)N1CCN(Cc2nc3c(c(=O)n(C)c(=O)n3C)n2Cc2ccccc2C)CC1	inconclusive: 8.28 µM [inhibitor, partial curve, poor fit]
CCN(C(=O)CSc1ncccn1)C1CCS(=O)(=O)C1 (stereo not given)	inactive
O=C(O)Cc1ccc(NC(=O)c2cccc(NC(=O)c3ccco3)c2)cc1	inconclusive: 4.15 µM [inhibitor, partial curve, poor fit]
O=C1CN(C(=O)COC(=O)c2ccc(N3CCCCCC3)c([N+](=O)[O-])c2)c2ccccc2N1	active: 6.57 µM
COc1ccc(S(=O)(=O)Cc2ccc(C(=O)NCc3ccc(C)cc3)o2)cc1	inconclusive: 18.5 µM [inhibitor, single point]
CCC(C)NC(=O)C1CC(=O)N(CCc2ccc(F)cc2)C1 (stereo not given)	inactive
O=C(CSc1nnc(-c2ccc(Br)cc2)o1)N1CCN(C(=O)c2ccco2)CC1	inconclusive: 10.4 µM [inhibitor, partial curve, poor fit]
CCOC(=O)c1c(NC(=O)COc2ncnc3ccccc23)sc(C)c1CC	inconclusive: 18.5 µM [inhibitor, single point]
Cc1oc(-c2cccc(C(F)(F)F)c2)nc1CN1CCOCC1	inconclusive: 14.7 µM [inhibitor, single point]
Cc1noc(C)c1CSc1nnc2sc3ccccc3n12	inactive
CC1=C(C(N)=O)C(c2ccc(Br)cc2)n2nc(CCCO)nc2N1 (stereo not given)	inactive
COC(CNC(=O)c1ccc2c(=O)n(Cc3ccc(Cl)cc3)c(=S)[nH]c2c1)OC	inconclusive: 10.4 µM [inhibitor, single point]
COC(=O)C1=C(C)NC2=C(C(=O)C(C(=O)OC)C(c3ccc(OC)cc3)C2)C1c1ccccn1 (stereo not given)	inconclusive: 10.4 µM [inhibitor, single point]
COc1ccc([N+](=O)[O-])cc1NS(=O)(=O)c1ccccc1	inconclusive: 10.4 µM [inhibitor, partial curve]
CN(C)c1nc2sc3c(c2c(=O)n1C)CC(C)(C)OC3	inactive
CCn1c(=O)n(-c2ccc(Cl)cc2)c(=O)c2c3c(sc21)COC(C)(C)C3	active: 7.38 µM
Cc1cc(C(=O)N/N=C/c2cn[nH]c2-c2ccccc2)cs1	inconclusive: 10.4 µM [inhibitor, single point]

Structure (SMILES)	Potency
COC(=O)c1sccc1NC(=O)Nc1cccc(C)c1	inconclusive: 14.7 µM [inhibitor, partial curve]
CCOc1ccc(C(C)NC(=O)c2cc(=O)[nH]c3ccccc23)cc1OCC (stereo not given)	inactive
CC1CCN(C(=O)c2[nH]cnc2C(=O)Nc2ccc(Cl)cc2)CC1	inconclusive: 16.5 µM [inhibitor, single point]
Cc1ccc(-c2nn(-c3ccc(F)cc3)cc2C(=O)NCC2CCCO2)cc1 (stereo not given)	inconclusive: 10.4 µM [inhibitor, single point]
Cc1ccc(C)c(NC(=O)COc2coc(CN3CCc4ccccc4C3)cc2=O)c1	inconclusive: 14.7 µM [inhibitor, single point]
CS(=O)(=O)c1ccc(Cl)c(NC(=O)C2CCCCN2S(=O)(=O)c2ccccc2)c1 (stereo not given)	inconclusive: 11.7 µM [inhibitor, single point]
Cc1cc(C(=O)NNC(=O)/C=C/c2ccc(F)cc2)c(C)o1	inactive
Cc1ccc(NC(=O)Nc2ccc3c(c2)CCC3)cc1	inactive
CC(=O)NN1C(=O)c2ccccc2NC1c1ccc(N(C)C)cc1 (stereo not given)	inconclusive: 10.4 µM [inhibitor, single point]
O=C(Nc1ccc(C(=O)N2CCN(c3ccc(F)cc3)CC2)cc1)C1=CSCCO1	inconclusive: 18.5 µM [inhibitor, single point]
CCCN1CCc2c(sc(NC(=O)c3ccc(S(=O)(=O)N4CCN(C(=O)OCC)CC4)cc3)c2C(N)=O)C1	inconclusive: 0.37 µM [inhibitor, partial curve, poor fit]
C=C(C)CNC(=S)NN=C1c2ccccc2-c2ccccc21	inconclusive: 7.38 µM [inhibitor, partial curve]
FC(F)(F)c1ccc(Oc2ccc3cc(Br)ccc3c2)nc1	inconclusive: 18.5 µM [inhibitor, single point]
COc1ccc2c(c1)OC/C(=C/c1cccs1)C2=O	active: 2.94 µM
Clc1ccccc1/C=N/N1CCN(Cc2ccccc2)CC1	inconclusive: 11.7 µM [inhibitor, single point]
CCOc1ccc(N2C(=O)CC(=O)NC2=O)cc1	active: 10.4 µM
Cc1ccc(C(C)NC(=O)C23CC4CC(CC(C4)C2)C3)cc1 (stereo not given)	active: 0.586 µM
CC1CCN(c2ccc(NC(=O)c3ccc(Br)o3)cc2)CC1	inconclusive: 4.65 µM [inhibitor, partial curve]
O=C(CSc1nc(-c2cccs2)nc2ccccc12)NC1CCS(=O)(=O)C1 (stereo not given)	inconclusive: 18.5 µM [inhibitor, single point]
Cc1ccn2c(C(=O)CSc3ccc(Cl)cc3Cl)c(C)nc2c1	inconclusive: 18.5 µM [inhibitor, single point]
Cc1cccc(N(C)S(=O)(=O)c2c[nH]c3ccc([N+](=O)[O-])cc23)c1	inconclusive: 18.5 µM [inhibitor, single point]

A portion from further up, for reference:
Structure (SMILES)	Potency
Cc1ccc(NC(=O)Nc2ccc3c(c2)CCC3)cc1	inactive
CC(=O)NN1C(=O)c2ccccc2NC1c1ccc(N(C)C)cc1 (stereo not given)	inconclusive: 10.4 µM [inhibitor, single point]
O=C(Nc1ccc(C(=O)N2CCN(c3ccc(F)cc3)CC2)cc1)C1=CSCCO1	inconclusive: 18.5 µM [inhibitor, single point]
CCCN1CCc2c(sc(NC(=O)c3ccc(S(=O)(=O)N4CCN(C(=O)OCC)CC4)cc3)c2C(N)=O)C1	inconclusive: 0.37 µM [inhibitor, partial curve, poor fit]
C=C(C)CNC(=S)NN=C1c2ccccc2-c2ccccc21	inconclusive: 7.38 µM [inhibitor, partial curve]
